# According to US9040261B2, “Compounds as L-cystine crystallization inhibitors and uses thereof” (NEW YORK UNIVERSITY, priority 2009, dated 2015):
# Some of these results come from one statement about several compounds together.
# Experiment: Bulk crystallization of L-cystine in the presence of additives (mass yield)
# Description: Alternately, the hexagonal crystals can be obtained by crystallization performed near neutral pH (Sa) The hexagonal form was crystallized from a supersaturated L-cystine solution prepared by adding 70 mg of L-cystine to 100 mL of deionized water (3 mM), and heating under reflux at 100° C. for 20 min with stirring to completely dissolve L-cystine. […] This concentration was used for bulk crystallization studies in the presence of additives so that a measurable amount of bulk crystals could be obtained in a reasonable time. The solution was then allowed to cool slowly with stirring for 75 min. 30 mL aliquots were transferred to separate glass containers, which were then sealed to prevent evaporation and exposure to airborne particulates and stored for 72 hours at room temperature without stirring. […] The crystals retrieved in this manner were used for AFM studies by mounting individual crystals according to the procedure described below.
# Various proteins, poly-amino acids, and molecular mimics of L-cystine were examined as additives. The aforementioned procedure for hexagonal platelet crystallization was repeated. […]
# L-cystine bulk crystallization was investigated in the presence of various polymers, urinary constituents, fish antifreeze proteins (AFPs), and L-cystine derivatives (i.e. structural mimics of L-cystine), which were analyzed as possible growth inhibitors of hexagonal L-cystine. […]
Molecule,"Yield (%) = (collected mass by filtration, >11 μm)/(total mass added) × 100% (10 mg/L additive, 0.7 g/L L-cystine, no additive 80±8%, hydrochloride) [%]","Yield (%) = (collected mass by filtration, >11 μm)/(total mass added) × 100% (2 mg/L additive, 0.7 g/L L-cystine (pH 6.8), no additive 80, approximate error ±8%, listed as poly-L-arginine) [%]"
"COC(=O)[C@@H](N)CS.Cl [L-cysteine methyl ester, L-cysteine methyl ester hydrochloride, reference compound]",< 40,
Poly-L-arginine,,< 40
